Our source for the binding values is article doi:10.1101/2025.04.04.647332.

The chains behind the UniProt entries cited, without tags or fusion partners. Where a name states a change or a piece, a line headed by the entry shows the natural chain unless it says otherwise.
UniProt P20585: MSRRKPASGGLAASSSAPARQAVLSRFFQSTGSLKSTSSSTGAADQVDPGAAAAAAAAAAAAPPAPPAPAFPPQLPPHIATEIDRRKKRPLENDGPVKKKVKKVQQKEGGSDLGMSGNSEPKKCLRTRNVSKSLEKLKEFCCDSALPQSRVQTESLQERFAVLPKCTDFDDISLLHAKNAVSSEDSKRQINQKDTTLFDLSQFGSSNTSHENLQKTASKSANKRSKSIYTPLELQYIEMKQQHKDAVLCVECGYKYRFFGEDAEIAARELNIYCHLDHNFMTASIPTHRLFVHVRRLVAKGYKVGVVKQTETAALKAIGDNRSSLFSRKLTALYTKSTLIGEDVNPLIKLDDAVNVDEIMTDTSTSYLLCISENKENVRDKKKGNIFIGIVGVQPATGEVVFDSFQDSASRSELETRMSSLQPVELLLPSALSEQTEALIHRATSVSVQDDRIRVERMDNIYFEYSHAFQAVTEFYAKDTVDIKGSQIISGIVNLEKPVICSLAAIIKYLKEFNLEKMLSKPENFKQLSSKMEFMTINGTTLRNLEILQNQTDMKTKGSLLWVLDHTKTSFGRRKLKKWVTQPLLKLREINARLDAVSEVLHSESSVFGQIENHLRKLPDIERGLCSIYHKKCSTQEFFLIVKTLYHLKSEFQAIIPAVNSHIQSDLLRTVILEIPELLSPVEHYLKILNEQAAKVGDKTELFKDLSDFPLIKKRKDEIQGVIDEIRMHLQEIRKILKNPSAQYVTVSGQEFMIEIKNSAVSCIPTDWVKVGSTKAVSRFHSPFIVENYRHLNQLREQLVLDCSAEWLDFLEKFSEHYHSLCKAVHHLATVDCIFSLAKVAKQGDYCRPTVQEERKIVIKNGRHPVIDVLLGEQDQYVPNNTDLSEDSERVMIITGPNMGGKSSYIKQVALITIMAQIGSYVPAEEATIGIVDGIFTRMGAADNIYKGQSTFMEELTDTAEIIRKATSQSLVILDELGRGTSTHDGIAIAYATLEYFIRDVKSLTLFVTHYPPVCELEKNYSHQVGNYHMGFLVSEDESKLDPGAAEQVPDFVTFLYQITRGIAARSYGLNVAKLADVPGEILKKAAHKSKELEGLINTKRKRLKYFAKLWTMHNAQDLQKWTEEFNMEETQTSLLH
UniProt P43246: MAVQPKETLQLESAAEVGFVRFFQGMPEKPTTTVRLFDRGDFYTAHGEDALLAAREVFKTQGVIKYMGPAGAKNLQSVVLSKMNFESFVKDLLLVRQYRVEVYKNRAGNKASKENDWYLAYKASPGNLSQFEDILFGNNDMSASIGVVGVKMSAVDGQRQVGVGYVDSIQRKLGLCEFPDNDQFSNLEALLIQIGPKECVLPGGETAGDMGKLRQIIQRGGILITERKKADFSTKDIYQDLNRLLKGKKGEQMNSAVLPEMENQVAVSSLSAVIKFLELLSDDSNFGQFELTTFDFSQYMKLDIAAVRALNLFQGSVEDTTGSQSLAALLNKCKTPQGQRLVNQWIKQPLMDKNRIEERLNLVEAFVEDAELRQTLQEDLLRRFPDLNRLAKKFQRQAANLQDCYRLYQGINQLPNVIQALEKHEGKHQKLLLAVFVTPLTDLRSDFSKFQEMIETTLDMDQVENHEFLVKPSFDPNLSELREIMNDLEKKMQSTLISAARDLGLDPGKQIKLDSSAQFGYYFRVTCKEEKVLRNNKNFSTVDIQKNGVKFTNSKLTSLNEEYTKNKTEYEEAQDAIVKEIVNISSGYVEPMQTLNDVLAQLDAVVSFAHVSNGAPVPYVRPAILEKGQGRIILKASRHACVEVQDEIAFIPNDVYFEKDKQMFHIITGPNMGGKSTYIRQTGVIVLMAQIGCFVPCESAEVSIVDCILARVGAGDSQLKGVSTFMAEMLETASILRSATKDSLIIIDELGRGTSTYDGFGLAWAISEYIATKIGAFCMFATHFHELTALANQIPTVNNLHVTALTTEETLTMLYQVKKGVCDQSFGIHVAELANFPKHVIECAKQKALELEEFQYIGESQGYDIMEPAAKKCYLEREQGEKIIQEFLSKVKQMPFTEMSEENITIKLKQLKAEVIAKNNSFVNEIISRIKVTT

Results are given in words; binding and its absence hold for the method and conditions named. In cells and extracts the contact can be indirect. Some results given as binding are weak or reduced against the parent protein; the word gives no strength.

This assay addresses DNA2 (as in the co-IP and western blot of Fig. 2c, d) (UniProt P51530). Kind of assay: co-IP; whole-cell lysates (0.5% Nonidet P-40, 50 mM Tris-HCl, 0.1 mM EDTA, 150 mM NaCl) with an antibody against a specific protein and Protein A/G magnetic beads; wash with 500 mM NaCl; western blot. In general terms: In western blotting, separated proteins are transferred to a membrane and probed.

Turning to MSH3 (from UniProt P20585 1-1137), the binding entry is “no binding”. With “MutSα (MSH2-MSH6) (as in the co-IP and western blot of Fig. 2c, d) (from UniProt P43246 1-934; P52701 1-1360) (complex)”, the binding entry was “binds”.
